{"source": "PubChem BioAssay AID180", "about": "(DTP/NCI, 2004)", "system": "BDF1 mice, Adenocarcinoma 755 s.c., tumor weight T/C", "assay": "NCI In Vivo Anticancer Drug Screen. Data for tumor model Adenocarcinoma 755 (subcutaneous) in B6D2F1 (BDF1) mice", "details": "T/C endpoint: mean tumor weight, higher T/C = larger tumour; for T/C: evaluated on day 12", "summary_of_the_method": "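Values express treated (T) relative to vehicle-dosed control (C) animals, based on survival or tumour size measured after compound treatment of mice bearing a transplanted tumour.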", "key": {"[1]": {"details": "dose: 100.0 mg/kg/injection, schedule: Q01DX011 (ip), vehicle: carboxymethylcellulose (CMC)"}, "[2]": {"details": "dose: 25.0 mg/kg/injection, schedule: Q01DX011 (ip), vehicle: carboxymethylcellulose (CMC)"}}, "note": "The list does not hold the whole screen: it gathers tests that were run many times, whatever their T/C, doses with no T/C, and many T/C values between a quarter and a half above the control. Other doses and runs of a compound stand elsewhere. T/C: endpoint of the treated group in % of that of the vehicle group. Schedule codes are those of the source, taken here to give the interval after Q, in days (D) or hours (H), and the number of doses after X. Some T/C values carry the count of animals alive at the toxicity check (mostly the fifth day); where none is given, no animal had died by that day. Some doses were run more than once; the values are given in rising order. Some schedule codes hold Z or #, which are not explained here. Some doses have a count of surviving animals in place of a T/C: the source holds a T/C of zero for them, seemingly a mark for toxic or unscored doses. Counts of survivors are from the toxicity check (mostly the fifth day) where no day follows; animals may have died later.", "data": [{"smiles": "O=C=NC(c1ccccc1)(c1ccccc1)c1ccccc1", "values": [{"measurement": "survivor count", "setting": "dose: 224.0 mg/kg/injection, schedule: Q01DX011 (ip), vehicle: carboxymethylcellulose (CMC)", "value": "2 of 10"}]}, {"smiles": "C[C@H]1C[C@@H]2[C@H]([C@@H](O)C[C@@]3(C)[C@H]2CC[C@]3(O)C(=O)CO)[C@@]2(C)C=CC(=O)C=C12", "values": [{"measurement": "survivor count", "setting": "dose: 114.0 mg/kg/injection, schedule: Q01DX011 (sc), vehicle: water", "value": "6 of 10"}, {"measurement": "survivor count", "setting": "dose: 115.0 mg/kg/injection, schedule: Q01DX011 (sc), vehicle: steroid suspending solution", "value": "6 of 10"}, {"measurement": "survivor count", "setting": "dose: 460.0 mg/kg/injection, schedule: Q01DX011 (sc), vehicle: steroid suspending solution", "value": "2 of 10"}]}, {"smiles": "COc1cc([C@@H]2c3cc4c(cc3[C@H](O)[C@H]3COC(=O)[C@H]23)OCO4)cc(OC)c1OC", "values": [{"measurement": "T/C", "setting": "dose: 0.13 mg/kg/injection, schedule: Q01DX011 (ip), vehicle: carboxymethylcellulose (CMC)", "value": "135 % of control"}]}, {"smiles": "Nc1ccc2cc3ccccc3cc2c1", "values": [{"measurement": "survivor count", "setting": "dose: 42.0 mg/kg/injection, schedule: Q01DX011 (ip), vehicle: carboxymethylcellulose (CMC)", "value": "4 of 10"}, {"measurement": "survivor count", "setting": "dose: 84.0 mg/kg/injection, schedule: Q01DX011 (ip), vehicle: carboxymethylcellulose (CMC)", "value": "0 of 10"}]}, {"smiles": "NS(=O)(=O)c1nc(S(=O)(=O)O)c2[nH]cnc2n1", "values": [{"measurement": "T/C", "setting": "dose: 15.5 mg/kg/injection, schedule: Q01DX011 (ip), vehicle: carboxymethylcellulose (CMC)", "value": "143 % of control"}]}, {"smiles": "CCCn1cnc2c(=S)nc[nH]c21", "values": [{"measurement": "T/C", "setting": "dose: 0.5 mg/kg/injection, schedule: Q01DX011 (ip), vehicle: carboxymethylcellulose (CMC)", "value": "138 % of control [9 of 10 alive]"}, {"measurement": "survivor count", "setting": "[1]", "value": "0 of 10"}, {"measurement": "survivor count", "setting": "dose: 125.0 mg/kg/injection, schedule: Q01DX011 (ip), vehicle: carboxymethylcellulose (CMC)", "value": "3 of 10"}, {"measurement": "survivor count", "setting": "dose: 250.0 mg/kg/injection, schedule: Q01DX011 (ip), vehicle: carboxymethylcellulose (CMC)", "value": "0 of 10"}]}, {"smiles": "COc1ccc(-c2c(C)c(C(=O)O)nc(-c3ccc(C(=O)O)c(C(=O)O)n3)c2N)c(O)c1OC", "values": [{"measurement": "T/C", "setting": "dose: 400.0 mg/kg/injection, schedule: Q01DX011 (ip), vehicle: water", "value": "129 % of control [8 of 10 alive]"}, {"measurement": "survivor count", "setting": "dose: 500.0 mg/kg/injection, schedule: Q01DX011 (ip), vehicle: water", "value": "2 of 10"}]}, {"smiles": "Nc1nnnc2nc[nH]c12", "values": [{"measurement": "survivor count", "setting": "[2]", "value": "1 of 10"}]}, {"smiles": "CCCSc1ncnc2nc[nH]c12", "values": [{"measurement": "T/C", "setting": "dose: 0.25 mg/kg/injection, schedule: Q01DX011 (ip), vehicle: alcohol", "value": "137 % of control"}, {"measurement": "T/C", "setting": "dose: 0.5 mg/kg/injection, schedule: Q#A X022 (ip), vehicle: alcohol", "value": "145 % of control"}, {"measurement": "survivor count", "setting": "dose: 1.25 mg/kg/injection, schedule: Q#A X022 (ip), vehicle: alcohol", "value": "6 of 10"}, {"measurement": "survivor count", "setting": "dose: 10.0 mg/kg/injection, schedule: Q01DX011 (im), vehicle: alcohol", "value": "0 of 10"}, {"measurement": "survivor count", "setting": "dose: 15.0 mg/kg/injection, schedule: Q#A X022 (ip), vehicle: alcohol", "value": "6 of 10"}, {"measurement": "survivor count", "setting": "dose: 20.0 mg/kg/injection, schedule: Q01DX011 (im), vehicle: alcohol", "value": "0 of 10"}, {"measurement": "survivor count", "setting": "dose: 50.0 mg/kg/injection, schedule: Q01DX001 (ip), vehicle: alcohol", "value": "5 of 10"}, {"measurement": "survivor count", "setting": "dose: 100.0 mg/kg/injection, schedule: Q01DX001 (ip), vehicle: alcohol", "value": "1 of 10"}, {"measurement": "survivor count", "setting": "dose: 200.0 mg/kg/injection, schedule: Q01DX001 (ip), vehicle: alcohol", "value": "6 of 10"}]}, {"smiles": "CCC(=O)O[C@H]1CC[C@H]2[C@@H]3CCC4=CC(=O)CC[C@]4(C)[C@H]3[C@@H](O)C[C@]12C", "values": [{"measurement": "T/C", "setting": "dose: 450.0 mg/kg/injection, schedule: Q01DX011 (sc), vehicle: steroid suspending solution", "value": "137 % of control"}]}, {"smiles": "COc1ccc(/C=N/Nc2nc3c([nH]2)c(=O)n(C)c(=O)n3C)cc1", "values": [{"measurement": "T/C", "setting": "dose: 120.0 mg/kg/injection, schedule: Q01DX011 (ip), vehicle: carboxymethylcellulose (CMC)", "value": "141 and 143 % of control [9 of 10 alive]"}]}, {"smiles": "CC(=O)O[C@]1(C(C)=O)CC[C@H]2[C@@H]3C[C@H](C)C4=CC(=O)C=C[C@]4(C)[C@@]3(F)[C@@H](O)C[C@@]21C", "values": [{"measurement": "survivor count", "setting": "dose: 60.0 mg/kg/injection, schedule: Q01DX011 (sc), vehicle: steroid suspending solution", "value": "6 of 10"}, {"measurement": "survivor count", "setting": "dose: 120.0 mg/kg/injection, schedule: Q01DX011 (sc), vehicle: steroid suspending solution", "value": "2 of 10"}, {"measurement": "survivor count", "setting": "dose: 136.0 mg/kg/injection, schedule: Q01DX011 (sc), vehicle: steroid suspending solution", "value": "4 of 10"}, {"measurement": "survivor count", "setting": "dose: 240.0 mg/kg/injection, schedule: Q01DX011 (sc), vehicle: steroid suspending solution", "value": "5 of 10"}]}, {"smiles": "CCCCN(C)N=Nc1ccc(C(N)=O)cc1", "values": [{"measurement": "survivor count", "setting": "[1]", "value": "6 of 10"}]}, {"smiles": "CO[C@@H]1[C@@H](OC2OC(C)C(OC3CC(C)(O)C(OC(=O)CC(C)C)C(C)O3)C(N(C)C)C2O)[C@@H](CC=O)C[C@@H](C)C(=O)/C=C/C2O[C@H]2C[C@@H](C)OC(=O)C[C@H]1OC(C)=O", "note": "(stereo partly drawn)", "values": [{"measurement": "survivor count", "setting": "dose: 350.0 mg/kg/injection, schedule: Q01DX011 (ip), vehicle: other", "value": "5 of 10"}]}, {"smiles": "O=C(/C=C/C(=O)c1ccccc1)c1ccccc1", "values": [{"measurement": "survivor count", "setting": "dose: 180.0 mg/kg/injection, schedule: Q01DX011 (ip), vehicle: other", "value": "5 of 10"}]}, {"smiles": "N#[N+]c1n[nH]nc1C(N)=O", "values": [{"measurement": "survivor count", "setting": "[2]", "value": "4 of 10"}]}, {"smiles": "CC(=O)N(C)C", "values": [{"measurement": "T/C", "setting": "dose: 250.0 mg/kg/injection, schedule: Q01DX006 (iv), vehicle: saline", "value": "132 % of control"}, {"measurement": "T/C", "setting": "dose: 250.0 mg/kg/injection, schedule: Q01DX011 (im), vehicle: saline", "value": "140 % of control"}, {"measurement": "T/C", "setting": "dose: 250.0 mg/kg/injection, schedule: Q01DX011 (sc), vehicle: saline", "value": "147 % of control"}, {"measurement": "T/C", "setting": "dose: 250.0 mg/kg/injection, schedule: Q#A X022 (ip), vehicle: saline", "value": "128 % of control [8 of 10 alive]"}, {"measurement": "survivor count", "setting": "dose: 1500.0 mg/kg/injection, schedule: Q01DX011 (ip), vehicle: other", "value": "5 of 10"}, {"measurement": "survivor count", "setting": "dose: 2000.0 mg/kg/injection, schedule: Q01DX011 (ip), vehicle: other", "value": "3 of 10"}, {"measurement": "survivor count", "setting": "dose: 2000.0 mg/kg/injection, schedule: Q01DX011 (sc), vehicle: saline", "value": "6 of 10"}]}, {"smiles": "Cc1cc2c(cc1C)NC(C)CC(=O)N2", "note": "(stereo not drawn)", "values": [{"measurement": "survivor count", "setting": "[1]", "value": "6 of 10"}, {"measurement": "survivor count", "setting": "dose: 200.0 mg/kg/injection, schedule: Q01DX011 (ip), vehicle: other", "value": "2 of 10"}, {"measurement": "survivor count", "setting": "dose: 400.0 mg/kg/injection, schedule: Q01DX011 (ip), vehicle: carboxymethylcellulose (CMC)", "value": "0 of 10"}, {"measurement": "survivor count", "setting": "dose: 400.0 mg/kg/injection, schedule: Q01DX011 (ip), vehicle: other", "value": "0 of 10"}]}, {"smiles": "CCCCC(CCCC)(C(=O)OCC)C(=O)OCC", "values": [{"measurement": "survivor count", "setting": "dose: 325.0 mg/kg/injection, schedule: Q01DX011 (ip), vehicle: methylcellulose (MC)", "value": "6 of 10"}]}, {"smiles": "O=C(Nc1ccc(C2=NCCCN2)cc1)c1ccc(NC(=O)c2ccc(C3=NCCCN3)cc2)cc1", "values": [{"measurement": "survivor count", "setting": "dose: 16.0 mg/kg/injection, schedule: Q01DX011 (ip), vehicle: carboxymethylcellulose (CMC)", "value": "5 of 10"}]}, {"smiles": "Nc1nc2c(ccn2Cc2ccccc2)c(=O)[nH]1", "values": [{"measurement": "T/C", "setting": "dose: 60.0 mg/kg/injection, schedule: Q01DX011 (ip), vehicle: carboxymethylcellulose (CMC)", "value": "125 % of control"}, {"measurement": "T/C", "setting": "dose: 240.0 mg/kg/injection, schedule: Q01DX011 (ip), vehicle: carboxymethylcellulose (CMC)", "value": "130 % of control"}]}, {"smiles": "Nc1nc(NCc2ccccc2)cc(=O)[nH]1", "values": [{"measurement": "survivor count", "setting": "dose: 500.0 mg/kg/injection, schedule: Q01DX011 (ip), vehicle: methylcellulose (MC)", "value": "5 of 10"}]}, {"smiles": "CCc1c(Cl)nc(N)nc1Nc1ccccc1Br", "values": [{"measurement": "T/C", "setting": "dose: 125.0 mg/kg/injection, schedule: Q01DX011 (ip), vehicle: methylcellulose (MC)", "value": "125 % of control [7 of 10 alive]"}]}, {"smiles": "O=S1(=O)OCc2ccccc21", "values": [{"measurement": "survivor count", "setting": "dose: 110.0 mg/kg/injection, schedule: Q01DX011 (ip), vehicle: carboxymethylcellulose (CMC)", "value": "4 of 10"}, {"measurement": "survivor count", "setting": "dose: 220.0 mg/kg/injection, schedule: Q01DX011 (ip), vehicle: methylcellulose (MC)", "value": "3 of 10"}]}, {"smiles": "COC1C(OC(N)=O)C(O)C(Oc2ccc3c(O)c(NC(=O)c4ccc(O)c(CC=C(C)C)c4)c(=O)oc3c2C)OC1(C)C", "note": "(stereo not drawn)", "values": [{"measurement": "survivor count", "setting": "dose: 400.0 mg/kg/injection, schedule: Q01DX011 (ip), vehicle: saline", "value": "0 of 10"}]}, {"smiles": "CC1CCOS(=O)O1", "note": "(stereo not drawn)", "values": [{"measurement": "survivor count", "setting": "dose: 80.0 mg/kg/injection, schedule: Q01DX011 (ip), vehicle: carboxymethylcellulose (CMC)", "value": "3 of 10"}]}, {"smiles": "CC(C)Cn1cnc2c(SCc3ccc(Cl)cc3Cl)nc(N)nc21", "values": [{"measurement": "T/C", "setting": "dose: 4.5 mg/kg/injection, schedule: Q01DX011 (ip), vehicle: other", "value": "131 % of control [9 of 10 alive]"}]}, {"smiles": "CC(=O)Nc1c(Cl)c(Cl)c2c(c1Cl)Cc1cc(Br)ccc1-2", "values": [{"measurement": "survivor count", "setting": "dose: 50.0 mg/kg/injection, schedule: Q01DX011 (ip), vehicle: carboxymethylcellulose (CMC)", "value": "6 of 10"}, {"measurement": "survivor count", "setting": "[1]", "value": "4 of 10"}]}]}
